Among the data in publication PMC5539422 are binding values, retold here.

No constants are given. Whether binding was seen depends on the method and setting. Binding seen in cells or lysates may run through a third protein. A yes stands for co-enrichment or nearness to the bait. Other partners may have been found. Where a sequence is shown, tags or fusion partners need not be part of it.

The target of the assay is T1, L7Ae with a C-terminal Flag-hemagglutinin (Flag-HA) tag (Sulfolobus acidocaldarius) (UniProt Q4J8P1).
T1 sequence: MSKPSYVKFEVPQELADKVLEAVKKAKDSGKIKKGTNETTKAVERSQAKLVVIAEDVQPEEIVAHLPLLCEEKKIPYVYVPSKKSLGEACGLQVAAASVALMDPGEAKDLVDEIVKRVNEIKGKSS
Put plainly: affinity purification with mass spectrometry; two consecutive immunoprecipitations (Flag-IP, then HA-IP) of genomically Flag-HA-tagged L7Ae from S. acidocaldarius lysate; 100 mM MOPS pH 6.5, 300 mM NaCl, 10% glycerol; 4°C; eluted with 8 M urea; SDS-PAGE, co-isolated proteins identified via mass spectrometry; mock purification of the untagged strain as control.

B1: fibrillarin (protein, UniProt Q9P9M0 1-231)
chain: MSEIEKVTKTQFDNVYECIFNDGTTRLCTKNLSPGHNVYGERLIKYGGVEYREWNAFRSKLAGAIVKGLKYNPIVKGSKILYLGAASGTTPSHISDIVELQGKVYSVEFSPRVIRELLLVAQYRPNMFPILADARFPQYYKSLVENVDIVYVDIAQPNETEIAMYNARFFLKKNGYMMIAIKSRSIDVTKDPREIYNAEAKKLEDAGFDIREVLELDPYDKDHAMIVVKYK
Regarding B1, the binding result is reported as “binds”.
